The other results are listed elsewhere or left out. The main result of the screen is listed elsewhere. These columns were measured beside it and carry no call. The list favours compounds with an active or inconclusive main result. Words in brackets tell the shape of the fitted curve; partial curves, single points and poor fits give uncertain potencies.
Test: qHTS Assay for Lipid Storage Modulators in Drosophila S3 Cells;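 on cell number change: cells counted by Cell Tracker Red CMTPX staining in the red channel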
Conditions: BODIPY lipid droplet fluorescence, 18-24 h; for cell number change: measured here: cell count max response, cells fed with added oleic acid
Summary of the method: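 Drosophila S3 cells loaded with oleic acid (400 uM, as added) and compounds at several concentrations; lipid droplets imaged by 488-nm laser-scanning cytometry, 500–530 nm intensity and object ratio to cell channel. Percent activity normalized to 20 uM Triacsin C.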

[1] = measured here: cell number channel AC50, cells fed with added oleic acid
[2] = measured here: lipid fluorescence (Fed channel) AC50, cells fed with added oleic acid

SMILES | cell number change | AC50 [1] | AC50 [2]
N/C(=N\OS(=O)(=O)c1cccc([N+](=O)[O-])c1)c1ccncc1 | -1.5% | 1.3 µM [falling, full curve, poor fit] | 0.164 µM [falling, full curve]
Cc1nc2sc3c(c2c(=O)o1)CC(C)(C)OC3 | -11.4% | 2.06 µM [falling, partial curve] | –
COc1ccc(C(=S)NC2CCCCC2)cc1 | -17% | – | 0.082 µM [falling, full curve, poor fit]
O=C(CN1C(=O)C2C3C=CC(C4CC34)C2C1=O)NCc1ccco1 (configuration not stated) | 2.23% | – | –
N=C1/C(=C/c2ccc(OCc3ccccc3F)cc2)C(=O)N=C2SC(CC(=O)N3CCOCC3)=NN12 | 22.2% | – | 0.92 µM [rising, full curve]
Cc1ccc(C(=O)Nc2ccccc2C(=O)N2CC3(C)CC2CC(C)(C)C3)cc1 (configuration not stated) | -11.6% | – | 8.2 µM [falling, partial curve, poor fit]
CCOC(=S)SCC(=O)Nc1nccs1 | 24.6% | – | –
Cc1ccc(S(=O)(=O)/N=C/c2ccc(N(C)C)cc2)cc1 | -10.4% | 0.731 µM [rising, single point] | –
COc1ccc(NC(=O)/C(Cl)=C(/Cl)S(=O)Cc2ccc(Cl)cc2)cn1 (configuration not stated) | -68.7% | 2.91 µM [falling, full curve, poor fit] | 3.26 µM [falling, partial curve, poor fit]
COc1cc2c(-c3ccc4cc[nH]c4c3)c(-c3ccsc3)oc(=O)c2cc1OC | -20.6% | – | 3.66 µM [rising, single point]
O=C(CSc1nc2c(c(=O)[nH]1)CCC2)Nc1ccccc1Cl | 20.9% | – | 6.51 µM [rising, single point]
O=C1C=C(c2ccccc2)C[C@@H](c2ccc3c(c2)OCO3)C1 | -8.78% | – | –
CNC(=O)N(O)C1N(c2ccccc2)C(=S)SC1(C)C (configuration not stated) | 14.1% | 6.51 µM [falling, single point] | 6.51 µM [falling, single point]
Cc1ccc(N(C)S(=O)(=O)c2cccc(C(=O)NCC(c3ccco3)N3CCCC3)c2)cc1 (configuration not stated) | – | – | 6.51 µM [falling, partial curve]
Cc1ccc(CCNC(=O)CCc2nc3ccccc3[nH]2)cc1 | -4.13% | – | 23.1 µM [falling, partial curve, poor fit]
COc1ccc(S(=O)(=O)N2CCCCCC2)cc1C(=O)N(C)Cc1cccc(OC)c1OC | – | 2.59 µM [rising, single point] | –
COc1ccccc1OCC(=O)OCC(=O)Nc1sccc1C(N)=O | – | – | 0.116 µM [falling, partial curve, poor fit]
CCO[C@@H]1OC(C(=O)NC2CC2)=C[C@H](c2ccc(C(F)(F)F)cc2)[C@H]1CCCO | 19.7% | – | 2.59 µM [rising, full curve, poor fit]
COCCn1c(-c2ccc(Cl)cc2)cnc1SCC(=O)NCc1cccs1 | 58.4% | 20.6 µM [rising, single point] | 5.17 µM [rising, single point]
Cc1c(CN2CCC(CO)(CCOc3ccccc3)CC2)[nH]c2c(Cl)cccc12 | -49.4% | 18.4 µM [falling, single point] | 32.6 µM [falling, partial curve, poor fit]
CCc1ccc(NC(=O)CNCc2ccc(OC)c(OC)c2)cc1 | 23% | – | –
O=C(c1ccc(F)cc1)N1CCC(O)(c2cccnc2)CC1 | 20.4% | 5.17 µM [falling, single point] | 0.82 µM [falling, full curve, poor fit]
Cc1[nH][nH]c(=O)c1C=NCc1cccnc1 | 13.9% | 0.00517 µM [rising, full curve, poor fit] | 0.00651 µM [rising, full curve, poor fit]
Cc1ccc(C(=O)Oc2ccc3c(c2)ncn3C)cc1 | 14.4% | – | –
Cc1ccc(C)c(NC(=O)CSc2nnc(CNC(=O)c3ccco3)n2C)c1 | 7.39% | – | 6.51 µM [rising, partial curve]
CC(=O)c1ccc(S(=O)(=O)Nc2ccc(C(=O)NCCCn3ccnc3)cc2)cc1 | -54.9% | 16.4 µM [falling, single point] | 29.1 µM [falling, single point]
Cc1onc(-c2ccccc2Cl)c1C(=O)Nc1nn[nH]n1 | 39% | 4.11 µM [rising, full curve] | 29.1 µM [rising, single point]
Cc1ccc(C)c(N2CCN(C(=O)COc3cc(=O)n(C)c4ccccc34)CC2)c1 | -27.4% | – | 4.11 µM [rising, partial curve, poor fit]

Some of the entries above in a different format:
SMILES	cell number change	AC50 [1]	AC50 [2]
Cc1nc2sc3c(c2c(=O)o1)CC(C)(C)OC3	-11.4%	2.06 µM [falling, partial curve]	–
CNC(=O)N(O)C1N(c2ccccc2)C(=S)SC1(C)C (configuration not stated)	14.1%	6.51 µM [falling, single point]	6.51 µM [falling, single point]
COc1ccc(S(=O)(=O)N2CCCCCC2)cc1C(=O)N(C)Cc1cccc(OC)c1OC	–	2.59 µM [rising, single point]	–
COc1ccccc1OCC(=O)OCC(=O)Nc1sccc1C(N)=O	–	–	0.116 µM [falling, partial curve, poor fit]
Cc1onc(-c2ccccc2Cl)c1C(=O)Nc1nn[nH]n1	39%	4.11 µM [rising, full curve]	29.1 µM [rising, single point]

Source: PubChem BioAssay AID2685 (National Center for Advancing Translational Sciences (NCATS), 2010)
